# Assay results as given in the supplement of paper PMC3334620.
# In all, about 33,000 sequences were measured (“E-score (-0.5 to 0.5)”: median about -0.015, highest 2% from about 0.3 on). This is one part of the list.
# Target: T1, Abf1 (UniProt P14164)
# T1 sequence: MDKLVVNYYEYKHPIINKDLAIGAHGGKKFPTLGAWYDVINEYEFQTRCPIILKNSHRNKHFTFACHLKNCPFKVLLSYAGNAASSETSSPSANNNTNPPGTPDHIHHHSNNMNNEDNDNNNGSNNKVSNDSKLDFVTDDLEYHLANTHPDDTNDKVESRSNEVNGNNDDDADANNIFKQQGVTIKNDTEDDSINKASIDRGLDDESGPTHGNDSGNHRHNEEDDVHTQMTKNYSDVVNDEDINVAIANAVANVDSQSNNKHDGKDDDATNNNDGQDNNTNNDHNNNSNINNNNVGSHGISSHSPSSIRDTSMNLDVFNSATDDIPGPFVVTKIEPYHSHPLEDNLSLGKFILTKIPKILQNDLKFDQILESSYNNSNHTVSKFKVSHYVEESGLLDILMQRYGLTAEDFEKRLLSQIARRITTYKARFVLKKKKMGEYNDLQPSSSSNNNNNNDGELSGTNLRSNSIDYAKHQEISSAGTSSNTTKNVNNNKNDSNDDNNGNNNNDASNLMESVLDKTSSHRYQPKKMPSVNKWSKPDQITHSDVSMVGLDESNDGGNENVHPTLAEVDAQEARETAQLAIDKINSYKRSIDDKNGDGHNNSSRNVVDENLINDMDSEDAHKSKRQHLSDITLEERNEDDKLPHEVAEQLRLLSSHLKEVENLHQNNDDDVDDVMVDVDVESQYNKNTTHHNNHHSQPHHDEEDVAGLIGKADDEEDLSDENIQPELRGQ
# Assay: PBM E-score (8-mer binding enrichment) (E-score (-0.5 to 0.5)); higher = stronger / more preferred TF binding
# Conditions: protein concentration: 200 nM; construct: GST-full length
# Summary of the method: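 Yeast transcription factors carrying a GST tag, as full-length proteins or DNA-binding domains, were produced by PURExpress in vitro transcription/translation. About 100-200 nM protein was applied to universal all-10-mer Agilent arrays, double-stranded by primer extension on fresh or once-stripped slides. Bound protein was detected with fluorescent anti-GST, and scans were normalised with masliner. The Universal PBM Analysis Suite gave each ungapped eight-base word, pooled with its reverse complement, an E-score, a modified Wilcoxon-Mann-Whitney statistic.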
row,Sequence,PBM E-score
1,CGCCGAAC,0.0673
2,GTTTGCGA,0.0411
3,ATGCGTAC,0.119
4,TCACAAGA,0.0608
5,CGCAGCCA,-0.157
6,ATAGCTCG,-0.0227
7,CTACCAGA,-0.193
8,ACGACACA,0.275
9,ATAGCCAT,0.0439
10,AGTTGGGA,-0.218
11,GAGTGAGA,0.0215
12,ATTCGACC,-0.0563
13,CGCGTTCC,-0.231
14,TGTAATAA,0.203
15,CTGATGAA,0.0318
16,AACCTGTC,-0.175
17,TACCGCCA,0.0184
18,CTCAAAAG,-0.0587
19,CGTATGCC,-0.0284
20,GACATAGA,0.0851
21,GTATCCAC,0.0115
22,TTAGCAAA,-0.175
23,AAAGTGCG,-0.105
24,GCGCCAGA,-0.231
25,TCCATTAA,0.0318

row,Sequence,PBM E-score
1,CAATTGGC,0.00835
2,CCGGAGCA,-0.291
3,ACCGAACA,-0.0253
4,GCTTGTAC,0.0867
5,ATTCATAG,0.126
6,AGAGTTAG,-0.217
7,CTGTATAA,-0.0403
8,AGCTTGCG,-0.123
9,AATGTAGA,-0.0277
10,AGCTCTGC,-0.361
11,TGTACAAA,0.0674
12,AAATTAAT,0.0897
13,GCCTTAGA,-0.0193
14,CCTACACC,-0.256
15,CATATGGA,0.127
16,CGCCTATA,-0.0896
17,GAGCCGAC,-0.241
18,TGACGCCA,-0.136
19,CTGAGAAG,-0.161
20,ATTGCCCA,-0.0404
21,AGTCATCG,0.267
22,TCGTGTAA,0.343
23,ACTAACCC,-0.153
24,GACGGAGA,-0.0216
25,CTTACTAA,0.172

row,Sequence,PBM E-score
1,GATGAGAC,0.104
2,CGGGTCAG,-0.173
3,CGCGAAAG,0.0686
4,CTGCCTTC,-0.269
5,GCTCACCC,-0.155
6,AACATCAT,0.309
7,AAGGCCAA,-0.0935
8,AAGCCCAT,-0.0799
9,AGACCTAT,-0.0191
10,CCTATTGA,-0.0303
11,AACAAAAG,0.168
12,GAGCTAGA,-0.11
13,CATCCAGC,-0.0905
14,CCATGGCC,-0.271
15,AGGCGTCC,-0.259
16,GGCGGAAC,-0.0975
17,CTCTGAGA,-0.0384
18,GACTCTTA,-0.0241
19,CCCTGAAC,0.17
20,TACGATCA,0.208
21,GCGCAAGA,-0.0185
22,ACAATCAT,0.0833
23,AAGCGAAG,0.133
24,ATGTCTTG,0.0293
25,AGTGAATG,0.0814

row,Sequence,PBM E-score
1,ATAGCGCA,-0.0427
2,CGTGTATA,0.153
3,CCTAAGCC,-0.317
4,CAAACCAG,-0.156
5,CCCGAACC,-0.21
6,CCTTATAC,0.172
7,CAGTCACG,0.0751
8,CCTGGTAG,-0.226
9,GGTAACAC,-0.0308
10,CCGGTGCG,-0.00687
11,CAGTGGTC,-0.0168
12,GGTCCTGA,-0.0764
13,CACACCGG,-0.0728
14,CACACGCA,-0.0899
15,CTGCTGGC,-0.25
16,AAATATTT,0.174
17,CCACTCTA,-0.03
18,AATTTTCA,0.11
19,GACACTCA,-0.0679
20,ACCGTCCG,-0.00107
21,ACAGCTTG,-0.117
22,ACTCCACT,-0.0183
23,CTGCCAGA,-0.229
24,ATATACCG,0.268
25,CGCAGCTA,-0.0788

# Two entries from above in another layout.
row	Sequence	PBM E-score
11	GAGTGAGA	0.0215
12	ATTCGACC	-0.0563

# Following part

row,Sequence,PBM E-score
1,AGTACACC,-0.197
2,CTTTCACC,0.0336
3,TAATGCGA,0.186
4,ATGTAATA,0.121
5,TTGAGAAA,0.0703
6,GCGGACCA,0.119
7,CTGTGGAA,-0.0344
8,CAAGATCG,0.117
9,CTGTAAGC,-0.00055
10,GGTGCATA,-0.0553
11,GCTAATCC,0.00615
12,CACTGGGC,-0.0686
13,AACGTCGC,0.146
14,AAGCCGGA,-0.0839
15,CTTGAACA,0.0646
16,CAAGAGCC,-0.132
17,AATCCGGT,0.0045
18,CGATGGCG,-0.0766
19,CAGGGGAC,-0.279
20,ACCTCCCG,-0.12
21,TATCTGCA,0.0471
22,CTTCACCC,0.0775
23,AAATTCTT,-0.0436
24,TACAAGGA,-0.0801
25,GGCTCCTA,-0.247

# Single values from the list:
# TATCTGCA | PBM E-score: 0.0471
# CAGGGGAC | PBM E-score: -0.279
# CAAGAGCC | PBM E-score: -0.132
# TACAAGGA | PBM E-score: -0.0801
# CGATGGCG | PBM E-score: -0.0766
# AACGTCGC | PBM E-score: 0.146
# GCGGACCA | PBM E-score: 0.119

# The list goes on.

row,Sequence,PBM E-score
1,CAGCCCGC,-0.361
2,GTTACGAA,0.208
3,ACGTGCAA,0.21
4,GAAACCAC,-0.124
5,TGCGCTAA,0.0633
6,GCCGTTCC,0.174
7,CAAACACG,0.125
8,GACTAGAC,-0.132
9,ACGCTGCC,-0.16
10,ATTGGCAG,-0.377
11,CAGCAAAG,-0.128
12,TATCTTGA,0.2
13,GTCTCGAA,-0.0979
14,AGTCTCTC,-0.278
15,AAACAATA,0.147
16,GTACGTAA,0.343
17,AACAGAGT,-0.144
18,AATGCGAA,-0.09
19,GATGGATA,0.0769
20,TAAGGCGA,0.039
21,ACCTTACT,-0.0612
22,CCCAAGAA,-0.0325
23,ATAACTCG,-0.0346
24,GTTATAAC,-0.11
25,GGTAAACC,-0.197

row,Sequence,PBM E-score
1,AATCCAAT,0.149
2,GCCATAAA,-0.0869
3,ACCACCGG,-0.163
4,ACTCACTC,-0.0558
5,CAGCAAGC,-0.15
6,CACCACTC,-0.0646
7,GTCACGCA,0.175
8,ACTATAGA,0.13
9,CCATACAG,-0.192
10,ACCCCTGG,-0.235
11,GAGCCCCA,-0.19
12,AATTGAAC,-0.0198
13,AGCGGCAA,-0.0673
14,CGAGCTTC,0.104
15,AGCGCGCA,-0.0129
16,AATCCCTC,-0.154
17,GCCTATGA,-0.101
18,ACCATCTA,-0.128
19,AGTTCAAG,0.221
20,CATTTGCA,0.105
21,AAGTTGAA,-0.0148
22,CCATACTC,-0.198
